Measurements taken from patent CN113045659A.
Where a chain is given by its changes, count along the chain named. Results are given in words; binding and its absence hold for the method and conditions named. Some entries that bind do so weakly or less than the wild type.

B1: 137-4 (antibody, IgG1, V domains shown, not shown: large carriers)
VH: QVQLVQSGAEVKKPGSSVKVSCKASGYSFTGYYIHWVRQAPGQGLEWMGRINPYNGATTYNQNFKDRVTITVDKSTSTAYMELSSLRSEDTAVYYCARFHYGAVDYWGQGTLVTVSS
VL: DIQMTQSPSSLSASVGDRVTITCKASQDINTYLTWYQQKPGKAPKTLIYRANILVDGVPSRFSGSGSGTDFTLTISSLQPEDFATYYCLQYEEFPLTFGGGTKVEIKR
B2: 137-7 (antibody, IgG1, V domains shown, not shown: large carriers)
VH: B1 VH with V104P, D105N
VL: B1 VL with E92D, E93D
B3: 137-6 (antibody, IgG1, V domains shown, not shown: large carriers)
VH: B1 VH with V104P, D105E
VL: B1 VL with E92A
B4: 137-5 (antibody, IgG1, V domains shown, not shown: large carriers)
VH: B1 VH with V104A
VL: B1 VL with E92N
B5: 137-8 (antibody, IgG1, V domains shown, not shown: large carriers)
VH: B1 VH with V104P, Y106F
VL: B1 VL with E92D, E93Q
B6: 137-9 (antibody, IgG1, V domains shown, not shown: large carriers)
VH: B1 VH with V104P, Y106L
VL: B1 VL with E92D, E93A

target: CHOK1-cynoCD73细胞上的猴CD73 (monkey (猴; cyno)); experiment: flow cytometry on CHOK1-cynoCD73 cells, Anti-hFC-APC

binding	Binder
binds	B1
binds	B2
binds	B3
binds	B4
binds	B5
binds	B6
